This is an account of results in paper PMC10716038, “Talin and kindlin use integrin tail allostery and direct binding to activate integrins” (Nature Structural & Molecular Biology, 2023).

Amino acid sequences for entries named in this document (tags omitted). A change or cut given only in a name is not applied to a line headed by its entry. Chains listed by the source or under a name are the forms on record and can include a tag or linker. Residues count along the entry.
β1 transmembrane and cytoplasmic tail polypeptide (β1-TM–CT) in nanodiscs (P05556, residues 726-798): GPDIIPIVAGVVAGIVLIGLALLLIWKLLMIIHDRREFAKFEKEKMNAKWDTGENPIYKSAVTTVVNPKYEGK
ATTO 488-labelled β1-CT (488–β1-CT) (P05556, residues 752-798): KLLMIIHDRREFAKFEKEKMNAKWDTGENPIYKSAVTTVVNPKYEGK
ATTO 488-labelled β1-CT^Y783A (P05556, form named): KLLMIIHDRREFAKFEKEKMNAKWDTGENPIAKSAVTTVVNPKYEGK

In assay [1] the target is ATTO 488-labelled β1-CT (488–β1-CT) (UniProt P05556). Kind of assay: MST; ATTO 488-labelled β-CT peptide (50–200 nM) held constant, one unlabelled protein titrated; 20 mM Tris pH 7.5, 200 mM NaCl, 1 mM TCEP, 0.05% Tween-20; apparent affinities (near-saturation only); both purified.
In assay [2] the target is T1, α5-TM lacking the cytoplasmic domain (tailless α5-TM) in nanodiscs (UniProt P11688).
T1 sequence (chain, biotin (biotin-maleimide)): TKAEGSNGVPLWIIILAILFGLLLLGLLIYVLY
Description: flow cytometry-based reporter-displacement assay (FC-RDA) on beads; biotinylated TM–CT in nanodiscs (10% PIP2 or PIP3, 90% DMPC) on streptavidin Dynabeads; reporters 100 nM 565–THD1 or 50 nM 647–KIND2; unlabelled THD1 or KIND2 titrated; 20 mM Tris pH 7.5, 200 mM NaCl, 10 min at room temperature; the lipids add to the binding; both purified. (Flow cytometry measures light scatter and fluorescence of single cells or particles in a stream.)

Assay [3] addresses β1 transmembrane and cytoplasmic tail polypeptide (β1-TM–CT) in nanodiscs (UniProt P05556). Described as above.
Assay [4] concerns the target ATTO 488-labelled β1-CT (488–β1-CT) (UniProt P05556). Kind of assay: MST; as a7, with a second unlabelled protein present at near-saturating concentration (named in the quantity or in the printed words); apparent constants (Kd,app*); both purified.
Assay [5] addresses T2, F0 domain of KIND2 (KIND2-F0) (UniProt Q8CIB5).
T2 sequence: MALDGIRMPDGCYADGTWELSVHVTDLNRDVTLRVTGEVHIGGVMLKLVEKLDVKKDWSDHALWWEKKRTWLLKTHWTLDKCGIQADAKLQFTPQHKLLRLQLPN
Kind of assay: NMR titration; 15N-labelled KIND2-F0 (100 µM) or KIND2-F0 Y13A (70 µM) observed (1H-15N HSQC); unlabelled TLN1-F3 or TLN1-F3 K402E added at equal concentration; 298 K; both purified.

The target of assay [6] is T3, ATTO 488-labelled β3-CT^Y772A (UniProt O54890).
T3 sequence (peptide, ATTO 488 at the N terminus): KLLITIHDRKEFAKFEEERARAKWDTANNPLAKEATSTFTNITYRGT
Kind of assay: MST; as a7, with a second unlabelled protein present at near-saturating concentration (named in the quantity or in the printed words); apparent constants (Kd,app*); both purified.

Assay [7] concerns the target ATTO 488-labelled β1-CT^Y783A (UniProt P05556). The description is as above.

Where a chain is given by its changes, count along the chain named. Numbers in names are those of the source. Results are given in words; binding and its absence hold for the method and conditions named. Some binding calls cover weakened binding; strength is not graded here.

Regarding “talin-1 head domain (THD1) (from UniProt P26039 1-405) (domain or fragment)”, the binding entry is recorded as “binds” in assay [1], “no binding” in assay [2], “binds” in assay [3] and “binds” in assay [4].
For the molecule “THD1^K402E (from UniProt P26039 1-405) (domain or fragment)”, in assay [3], the binding entry is recorded as “binds”.

B1: F3 domain of TLN1 (TLN1-F3) (domain or fragment, UniProt P26039 305-405, looked up)
chain: LKTYGVSFFLVKEKMKGKNKLVPRLLGITKECVMRVDEKTKEVIQEWSLTNIKRWAASPKSFTLDFGDYQDGYYSVQTTEGEQIAQLIAGYIDIILKKKKS
notes: Used unlabelled, 15N-labelled or partially deuterated in NMR; also called T1-F3; source: E. coli (DE3) Rosetta 2, purified (IMAC, SEC); not shown: His10, N-terminal, cleaved; SUMO, N-terminal, cleaved
For B1, the binding result in assay [5] was “binds”.

B2: kindlin-2 (KIND2) (protein, UniProt Q8CIB5 1-680)
chain: MALDGIRMPDGCYADGTWELSVHVTDLNRDVTLRVTGEVHIGGVMLKLVEKLDVKKDWSDHALWWEKKRTWLLKTHWTLDKCGIQADAKLQFTPQHKLLRLQLPNMKYVKVKVNFSDRVFKAVSDICKTFNIRHPEELSLLKKPRDPTKKKKKKLDDQSEDEALELEGPLIMPGSGSIYSSPGLYSKTMTPTYDAHDGSPLSPTSAWFGDSALSEGNPGILAVSQPVTSPEILAKMFKPQALLDKAKTNQGWLDSSRSLMEQDVKENEALLLRFKYYSFFDLNPKYDAIRINQLYEQAKWALLLEEIECTEEEMMMFAALQYHINKLSIMTSENHLNNSDKEVDEVDAALSDLEITLEGGKTSTILGDITSIPELADYIKVFKPKKLTLKGYKQYWCTFKDTSISCYKSREESSGTPAHQLNLRGCEVTPDVNISGQKFNIKLLIPVAEGMNEIWLRCDNEKQYAHWMAACRLASKGKTMADSSYNLEVQNILSFLKMQHLNPDPQLIPDQITTDVNPECLVSPRYLKKYKSKQITARILEAHQNVAQMSLIEAKMRFIQAWQSLPEFGITHFIARFQGGKREELIGIAYNRLIRMDASTGDAIKTWRFSNMKQWNVNWEIKMVTVEFADEVRLSFICTEVDCKVVHEFIGGYIFLSTRAKDQNESLDEEMFYKLTSGWV
On to B2, for which the binding result in assay [1] was “binds”; in assay [2], “no binding”; in assay [3] it was “binds”; in assay [6], “binds”; in assay [7], “binds”; in assay [4], “binds”.

B3: KIND2^Y13A (protein, UniProt Q8CIB5 1-680)
chain: B2 chain with Y13A
As for B3, the binding entry in assay [3] is on record as “binds”.
